Laboratory results from patent US20250025552A1 (published 2025).
These are yes or no findings as the source states them, for the method shown. In cells and extracts the contact can be indirect. Some binding calls cover weakened binding; strength is not graded here.

Chains of the proteins cited; added tags and fusions are not shown.
UniProt P22366: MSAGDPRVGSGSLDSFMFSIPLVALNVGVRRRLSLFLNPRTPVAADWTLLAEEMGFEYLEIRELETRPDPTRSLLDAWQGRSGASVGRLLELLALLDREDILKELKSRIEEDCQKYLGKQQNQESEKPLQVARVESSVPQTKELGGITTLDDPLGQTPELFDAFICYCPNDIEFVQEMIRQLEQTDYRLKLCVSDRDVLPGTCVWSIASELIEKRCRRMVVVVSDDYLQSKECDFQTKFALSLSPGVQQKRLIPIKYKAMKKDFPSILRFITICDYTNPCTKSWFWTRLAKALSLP

Target: T1, IRAK4 (mouse) (UniProt Q8R4K2)
T1 sequence (looked up): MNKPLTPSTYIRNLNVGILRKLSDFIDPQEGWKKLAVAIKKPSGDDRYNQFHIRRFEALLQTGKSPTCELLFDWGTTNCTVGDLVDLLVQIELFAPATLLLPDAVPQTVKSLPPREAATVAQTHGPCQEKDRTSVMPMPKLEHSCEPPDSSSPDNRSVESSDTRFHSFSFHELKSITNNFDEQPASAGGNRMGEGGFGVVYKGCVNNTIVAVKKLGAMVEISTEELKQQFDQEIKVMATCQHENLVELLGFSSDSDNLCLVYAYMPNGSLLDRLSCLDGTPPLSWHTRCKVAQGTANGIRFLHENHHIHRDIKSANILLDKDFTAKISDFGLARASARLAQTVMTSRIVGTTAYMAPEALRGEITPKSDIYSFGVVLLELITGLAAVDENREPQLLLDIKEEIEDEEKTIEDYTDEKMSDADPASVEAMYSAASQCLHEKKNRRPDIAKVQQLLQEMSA
Experiment: co-immunoprecipitation of IRAK4 with MyD88 from LPS-treated iMΦ lysates, Western analysis

Q: MyD88 (from UniProt P22366 1-296) was tested. Which binding did it give?
A: binds
